Source: the supplement of paper PMC7877785
± gives the uncertainty stated by the source. The uncertainty is large for many entries.

Experiment: self-splicing fitness, log relative to wild type (ln ratio); higher = more splicing; Tetrahymena group I intron in knt gene, E. coli kanamycin selection, DiMSum; sequences stand for … in CUCUCU…GGAGGGAAAAGUUAUCAGGCAUGCACCUGGUAGCUAGUCUUUAAACCAAUAGAUUGCAUCGGUUUAAAAGGCAAGACCGUCAAAUUGCGGGAAAGGGGUCAACAGCCGUUCAGUACCAAGUCUCAGGGGAAACUUUGAGAUGGCCUUGCAAAGGGUAUGGUAAUAAGCUGACGGACAUGGUCCUAACCACGCAGCCAAGUCCUAAGUCAACAGAUCUUCUGUUGAUAUGGAUGCAGUUCACAGACUAAAUGUCGGUCGGGGAAGAUGUAUUCUUCUCAUAAGAUAUAGUCGGACCUCUCCUUAAUGGGAGCUAGCGGAUGAAGUGAUGCAACACUGGAGCCGCUGGGAACUAAUUUGUAUGCGAAAGUAUAUUGAUUAGUUUUGGAGUACUCGUGGUCG
Method in brief: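 The eight P1ex-region nucleotides of an intron in the knt kanamycin-resistance gene on pET-22b(+) were all randomised and the library put into E. coli BL21(DE3). Six replicate transformations were grown overnight at 37°C or 30°C on LB agar with or without 25 μg/mL kanamycin, together with 100 μg/mL carbenicillin, 50 μM IPTG and 0.2% rhamnose. Colonies were pooled and amplicon-sequenced on an Illumina HiSeq 2500. Fitness from DiMSum is the error-weighted combination of wild-type-normalised replicate fold changes, kanamycin over none.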

Sequence	self-splicing fitness (ln) (30 °C)	self-splicing fitness (ln) (37 °C)
CGGGAGCAAUAUUACGCCAU	-2.76 ± 0.55	–
UUUUAGCAAUAUUACGCGAC	–	-2.43 ± 0.54
UCGGAGCAAUAUUACGGGAA	-1.04 ± 0.76	–
AAGUAGCAAUAUUACGAUCG	-1.43 ± 0.1	-0.453 ± 0.15
GCGUAGCAAUAUUACGCCCC	–	-0.881 ± 0.75
UCAUAGCAAUAUUACGAGGA	-3.42 ± 0.34	-0.473 ± 0.21
AUAUAGCAAUAUUACGCCAG	-3.8 ± 0.77	-0.682 ± 0.51
UUGAAGCAAUAUUACGCCCC	-1.27 ± 1.4	0.015 ± 0.59
CGCGAGCAAUAUUACGUGCG	-4.81 ± 0.59	–
GGAUAGCAAUAUUACGCAGG	-5.14 ± 1	-2.57 ± 0.54
CGGGAGCAAUAUUACGCCGA	-1.56 ± 0.56	–
AUAUAGCAAUAUUACGGAAC	-2.89 ± 0.41	-1.79 ± 0.58
AGUGAGCAAUAUUACGUCCG	-2.65 ± 1.1	–
UGGGAGCAAUAUUACGCACC	-2.16 ± 0.65	–
CACAAGCAAUAUUACGAAGU	-3.68 ± 0.16	-1.43 ± 0.12
CGUGAGCAAUAUUACGCUGA	-2 ± 0.53	–
GACGAGCAAUAUUACGUUAA	-3.77 ± 0.27	-2.79 ± 0.25
AACUAGCAAUAUUACGAGAC	–	-3.27 ± 0.6
UUAGAGCAAUAUUACGAGCU	-3.2 ± 0.63	-2.65 ± 0.65
UGCCAGCAAUAUUACGGAAC	–	-3.1 ± 0.6
CCUCAGCAAUAUUACGAACC	-3.12 ± 1.1	-1 ± 0.65
GGCGAGCAAUAUUACGCACC	-1.44 ± 0.51	–

Sequence	self-splicing fitness (ln) (30 °C)	self-splicing fitness (ln) (37 °C)
CUCCAGCAAUAUUACGGCGU	-3.61 ± 0.17	-3.4 ± 0.23
UGAUAGCAAUAUUACGCGCU	-0.577 ± 0.11	-0.36 ± 0.14
UAAGAGCAAUAUUACGGAAA	-3.36 ± 0.61	-3.68 ± 0.59
CUCUAGCAAUAUUACGGGCU	-4.45 ± 0.59	-4.2 ± 0.51
GGUAAGCAAUAUUACGGACC	–	-0.665 ± 0.56
CCUCAGCAAUAUUACGGAAC	-3.5 ± 0.52	-1.54 ± 1.2
UUGGAGCAAUAUUACGAUAG	–	-1.36 ± 0.61
AGUGAGCAAUAUUACGGUAA	-1.77 ± 0.69	–
UCGAAGCAAUAUUACGAACC	-3.31 ± 1	-2.74 ± 0.61
UAUGAGCAAUAUUACGCGUA	-1.96 ± 1.2	-1.12 ± 0.93
UCAAAGCAAUAUUACGCGAG	-0.91 ± 0.12	-0.54 ± 0.14
CUUUAGCAAUAUUACGUGCC	-1.27 ± 0.71	-1.23 ± 0.6
GGGGAGCAAUAUUACGAUCU	-1.4 ± 1.2	-0.267 ± 0.54
UUUGAGCAAUAUUACGGAGA	-2.64 ± 0.65	–
CGUCAGCAAUAUUACGGGAU	-4.7 ± 0.39	-2.66 ± 0.2
GCGUAGCAAUAUUACGCCCU	0.121 ± 0.79	-0.681 ± 1.4
UCGGAGCAAUAUUACGAUUA	-3.92 ± 0.74	–
GUCUAGCAAUAUUACGCCAG	–	-2.57 ± 1.1
UUUGAGCAAUAUUACGCUAA	–	-2.32 ± 0.65
GUCGAGCAAUAUUACGCAUA	-2.14 ± 0.18	-1.6 ± 0.16
UCUUAGCAAUAUUACGCUGC	-4.21 ± 0.73	-2.39 ± 0.56
UCACAGCAAUAUUACGUGUA	-2.2 ± 0.089	-1.09 ± 0.088

Some of the entries above, set out differently:
Sequence,self-splicing fitness (ln) (30 °C),self-splicing fitness (ln) (37 °C)
UGAUAGCAAUAUUACGCGCU,-0.577 ± 0.11,-0.36 ± 0.14
UAUGAGCAAUAUUACGCGUA,-1.96 ± 1.2,-1.12 ± 0.93

Later entries.

Sequence	self-splicing fitness (ln) (30 °C)	self-splicing fitness (ln) (37 °C)
UAAGAGCAAUAUUACGCUAC	-3.31 ± 0.74	-1 ± 0.92
AAGGAGCAAUAUUACGAAGC	-3.73 ± 0.74	-3.39 ± 0.75
CUGGAGCAAUAUUACGAUAA	-1.36 ± 0.6	-1.09 ± 0.64
CUUAAGCAAUAUUACGGACG	-0.229 ± 0.085	0.228 ± 0.12
CCUAAGCAAUAUUACGUCAC	-4.04 ± 1	–
ACUCAGCAAUAUUACGCACC	-1.19 ± 0.094	0.495 ± 0.11
GCUGAGCAAUAUUACGAAGU	-3 ± 0.54	–
GUUGAGCAAUAUUACGAAGA	-3.02 ± 0.62	–
GCCGAGCAAUAUUACGUUUG	-3.75 ± 0.2	-1.54 ± 0.19
CUUUAGCAAUAUUACGCCGC	-3.88 ± 1.1	-1.29 ± 1.2
AAGAAGCAAUAUUACGUAGG	-2.09 ± 0.082	-1.14 ± 0.12
CGCAAGCAAUAUUACGCUAC	–	-2.82 ± 0.48
CUGGAGCAAUAUUACGCACU	-3.34 ± 0.76	-1.98 ± 0.66
CCUGAGCAAUAUUACGCUUG	-4.16 ± 0.72	–
UUGGAGCAAUAUUACGACUA	–	-0.0758 ± 0.64
CAAUAGCAAUAUUACGGAUA	-3.03 ± 0.48	-2.77 ± 0.35
AGACAGCAAUAUUACGAAAC	-3.76 ± 0.27	-2.66 ± 0.34
CAUAAGCAAUAUUACGUUGG	-2.6 ± 0.095	-1.26 ± 0.094
CAAGAGCAAUAUUACGACCC	–	-1.87 ± 0.52
UUGGAGCAAUAUUACGCAAC	–	-1.38 ± 0.61
ACUGAGCAAUAUUACGUCGA	-3.59 ± 0.22	-2.07 ± 0.18
CUAUAGCAAUAUUACGGAUA	-5.05 ± 1	–

Sequence	self-splicing fitness (ln) (30 °C)	self-splicing fitness (ln) (37 °C)
UGCAAGCAAUAUUACGAAUC	–	-3.22 ± 0.73
AGACAGCAAUAUUACGUAAG	-1.33 ± 0.075	-0.396 ± 0.088
GGUCAGCAAUAUUACGGCCC	-2.66 ± 0.54	-2.1 ± 0.79
UUACAGCAAUAUUACGCCCC	-1.94 ± 0.68	1.1 ± 0.63
UGUCAGCAAUAUUACGCAAC	-2.59 ± 0.33	-1.26 ± 0.28
GGGGAGCAAUAUUACGGAAA	-1.07 ± 0.67	–
CUUUAGCAAUAUUACGUUAU	-3.64 ± 0.23	-1.79 ± 0.19
UCAAAGCAAUAUUACGAGUC	-3.79 ± 0.21	-2.26 ± 0.22
GAGCAGCAAUAUUACGCUCU	-3.46 ± 0.28	-3.34 ± 0.6
GAGGAGCAAUAUUACGCGAG	-2.95 ± 0.61	–
GGAGAGCAAUAUUACGCCCG	-1.9 ± 0.63	-1.57 ± 0.61
CUAAAGCAAUAUUACGGACC	–	-1.98 ± 0.69
CUUGAGCAAUAUUACGCGUC	-4.4 ± 1	-3.47 ± 1
CGCAAGCAAUAUUACGUUUC	-2.92 ± 0.16	-2.21 ± 0.23
CAUGAGCAAUAUUACGGGCU	-3.53 ± 0.16	-2.11 ± 0.15
CGCUAGCAAUAUUACGGUUA	-2.22 ± 0.23	-1.82 ± 0.2
GUCGAGCAAUAUUACGUGCU	-3.3 ± 0.62	-3.27 ± 0.73
UUAGAGCAAUAUUACGGUCC	–	-2.47 ± 1.1
GCAGAGCAAUAUUACGCUAC	-3.88 ± 1.1	–
UGGUAGCAAUAUUACGGAGG	-3.85 ± 0.27	-1.56 ± 0.16
CCUAAGCAAUAUUACGAAUC	–	-3.21 ± 0.6
CAAUAGCAAUAUUACGAGCC	-2.42 ± 0.9	-2.11 ± 0.64
